PubChem BioAssay AID602196, INSERM | 2012
Here is an unselected part of about 23,000 deposited reagents. Over the whole deposit, 455 (2%) got an active call. 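Active includes both protection and sensitisation; some change values fall well beyond the stated -50 to +50 range.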 Unmarked entries are inactive. Further read-outs or replicates are left out here. The record does not give: the amount of reagent.

- Assay: 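Modifiers of cisplatin sensitivity in A549 cells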
- Cell system: human A549 lung cancer cells
- Reagents: siRNA pair against human genes
- Time to read-out: 48 h transfection before cisplatin; time from cisplatin to read-out not stated
- Challenge: cisplatin at a dose killing half of control-siRNA cells; exact dose and duration not given
- Read-out: 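Shift in cisplatin death relative to control siRNA, from -50 (all cells die) to +50 (no cells die); siRNAs harmful on their own scored 0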
- Direction: two-siRNA summed score (-2 to +2): higher = both siRNAs protect from cisplatin killing; -2 means both sensitise
- Active means: 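Each siRNA scores 0 if harmful alone by LDH or WST-1, otherwise +1 if it reduces and -1 if it increases cisplatin killing; a gene is active when both siRNAs agree (sum +2 or -2)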
- Meaning of the calls: active = both siRNAs shift cisplatin killing the same way; inactive = no consistent shift, or siRNA harmful alone

How did the screen score SDCBP2 (GeneID 27111)?
two-siRNA summed score (-2 to +2): 0

What is on record for PKIB (GeneID 5570)?
two-siRNA summed score (-2 to +2): 0

For ABCA8 (GeneID 10351), what was measured?
two-siRNA summed score (-2 to +2): -1

How did the screen score LOC389301?
two-siRNA summed score (-2 to +2): 0

How did the screen score NDE1 (GeneID 54820)?
two-siRNA summed score (-2 to +2): 0

What is on record for MAB21L4 (GeneID 79919)?
two-siRNA summed score (-2 to +2): -1

What is on record for LOC142937 (retired record) (GeneID 142937)?
two-siRNA summed score (-2 to +2): 1

With DHRS3 (GeneID 9249), what was measured?
two-siRNA summed score (-2 to +2): 0

For ASB4 (GeneID 51666), how do the results read?
two-siRNA summed score (-2 to +2): 0

What is on record for RND2 (GeneID 8153)?
two-siRNA summed score (-2 to +2): 0

With LOC387631, what does the deposit list?
two-siRNA summed score (-2 to +2): 0

What did the screen give for RNF19B (GeneID 127544)?
two-siRNA summed score (-2 to +2): -1

Already shown: entries from further up.
RND2 (GeneID 8153): two-siRNA summed score (-2 to +2) = 0
LOC387631: two-siRNA summed score (-2 to +2) = 0
